According to patent US9725675B2, “Lipid-soluble formulations containing mixtures of antioxidants” (KEMIN INDUSTRIES, INC., priority 2003, dated 2017):
Some of these results come from one statement about several compounds together. At least one compound was matched to its structure with a doubt left.

Test: Oil Stability Index (OSI) induction time, AOCS Official Method Cd 12b-92, at 98° C.
Details: 1000 ppm, single antioxidants directly dissolved in soybean oil, control 14.8 h

COc1ccc(O)c(C(C)(C)C)c1 [BHA, butylated hydroxyanisole]
OSI induction time of soybean oil stabilized with synthetic antioxidants: 12.5 to 25.6 h
